{"source": "PubChem BioAssay AID1259424 (University of Nebraska Medical Center, 2018)", "assay": "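Find knockdowns that reproduce the expression shifts seen after KSR1 loss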 (primary screen)", "cells": "human HCT116 colon cancer cells", "reagents": "siRNA pool against human genes, 50 nM", "detection": "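Log2 levels of six mRNAs (branched-DNA multiplex), adjusted by two reference genes and the non-targeting median, then scored against the average KSR1 knockdown pattern as Pearson r and euclidean distance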", "direction": "mean correlation with KSR1 profile: higher = expression change more like KSR1 knockdown; mean distance from KSR1 profile: higher = expression change less like KSR1 knockdown", "note": "In all, the deposit lists about 14,000 reagents; below is a random part of them. 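Higher correlation or smaller distance means closer resemblance to KSR1 loss; control wells, including KSR1 knockdowns, recur on many plates.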 Reagents against one gene are numbered here. Not all columns of the deposit are shown. The record does not give: the time to read-out."}
The opening 3 records, to show the layout:
{"gene":"ARHGEF12","pool no.":1,"mean correlation with KSR1 profile":-0.314,"mean distance from KSR1 profile":1.87}
{"gene":"SUN1","pool no.":1,"mean correlation with KSR1 profile":-0.441,"mean distance from KSR1 profile":2.17}
{"gene":"ZNF608","pool no.":1,"mean correlation with KSR1 profile":-0.44,"mean distance from KSR1 profile":1.9}

The listing, from the start:
{"gene":"ARHGEF12","pool no.":1,"mean correlation with KSR1 profile":-0.314,"mean distance from KSR1 profile":1.87}
{"gene":"SUN1","pool no.":1,"mean correlation with KSR1 profile":-0.441,"mean distance from KSR1 profile":2.17}
{"gene":"ZNF608","pool no.":1,"mean correlation with KSR1 profile":-0.44,"mean distance from KSR1 profile":1.9}
{"gene":"CAMLG","pool no.":1,"mean correlation with KSR1 profile":0.576,"mean distance from KSR1 profile":2.12}
{"gene":"GUSBP14","pool no.":1,"mean correlation with KSR1 profile":-0.44,"mean distance from KSR1 profile":4.72}
{"gene":"GUSBP14","pool no.":2,"mean correlation with KSR1 profile":-0.199,"mean distance from KSR1 profile":4.42}
{"gene":"REM1","pool no.":1,"mean correlation with KSR1 profile":0.366,"mean distance from KSR1 profile":1.31}
{"gene":"REXO2","pool no.":1,"mean correlation with KSR1 profile":-0.185,"mean distance from KSR1 profile":1.95}
{"gene":"LY6G6C","pool no.":1,"mean correlation with KSR1 profile":0.582,"mean distance from KSR1 profile":1.25}
{"gene":"TSC22D2","pool no.":1,"mean correlation with KSR1 profile":0.511,"mean distance from KSR1 profile":1.3}
{"gene":"ELOA","pool no.":1,"mean correlation with KSR1 profile":0.186,"mean distance from KSR1 profile":1.79}
{"gene":"CDH23","pool no.":1,"mean correlation with KSR1 profile":0.161,"mean distance from KSR1 profile":2.82}
{"gene":"TRADD","pool no.":1,"mean correlation with KSR1 profile":-0.674,"mean distance from KSR1 profile":2.19}
{"gene":"KCNT1","pool no.":1,"mean correlation with KSR1 profile":0.0386,"mean distance from KSR1 profile":1.58}
{"gene":"TNN","pool no.":1,"mean correlation with KSR1 profile":-0.122,"mean distance from KSR1 profile":1.83}
{"gene":"SLC7A8","pool no.":1,"mean correlation with KSR1 profile":-0.131,"mean distance from KSR1 profile":1.23}
{"gene":"STARD9","pool no.":1,"mean correlation with KSR1 profile":-0.000662,"mean distance from KSR1 profile":1.4}
{"gene":"ARHGAP42","pool no.":1,"mean correlation with KSR1 profile":-0.135,"mean distance from KSR1 profile":2.11}
{"gene":"PLA2R1","pool no.":1,"mean correlation with KSR1 profile":0.468,"mean distance from KSR1 profile":2.27}
{"gene":"MIPOL1","pool no.":1,"mean correlation with KSR1 profile":-0.578,"mean distance from KSR1 profile":1.8}
{"gene":"HSPA4","pool no.":1,"mean correlation with KSR1 profile":0.144,"mean distance from KSR1 profile":1.58}
{"gene":"SRMS","pool no.":1,"mean correlation with KSR1 profile":0.579,"mean distance from KSR1 profile":1.8}
{"gene":"LINC00839","pool no.":1,"mean correlation with KSR1 profile":-0.0538,"mean distance from KSR1 profile":3.23}
{"gene":"ATG4C","pool no.":1,"mean correlation with KSR1 profile":0.0241,"mean distance from KSR1 profile":1.82}
{"gene":"ARHGAP32","pool no.":1,"mean correlation with KSR1 profile":-0.372,"mean distance from KSR1 profile":4}
{"gene":"IL1R2","pool no.":1,"mean correlation with KSR1 profile":-0.423,"mean distance from KSR1 profile":1.73}
{"gene":"SS18L2","pool no.":1,"mean correlation with KSR1 profile":0.39,"mean distance from KSR1 profile":2.64}
{"gene":"RBM4B","pool no.":1,"mean correlation with KSR1 profile":0.613,"mean distance from KSR1 profile":2.63}
